No constants are given. Whether binding was seen depends on the method and setting. In cells and extracts the contact can be indirect. Some binding calls cover weakened binding; strength is not graded here. Tags and fused reporters may be left off the sequences shown.
Assays:
[1] = target: T1, HA-tagged iRhom2 wild type (iRhom2^WT), in iRhom1/2 DKO A549 cells (UniProt Q6PJF5); assay: co-IP; anti-HA magnetic beads on cleared Triton X-100 lysates (1% Triton X-100, 150 mM NaCl, 50 mM Tris-HCl pH 7.5, PhosSTOP), at least 2 h at 4°C; iRhom1/2 DKO A549 cells stably expressing HA-iRhom2^WT or iRhom2^pMUT; blots for 14-3-3ε, HA and actin
T1 sequence: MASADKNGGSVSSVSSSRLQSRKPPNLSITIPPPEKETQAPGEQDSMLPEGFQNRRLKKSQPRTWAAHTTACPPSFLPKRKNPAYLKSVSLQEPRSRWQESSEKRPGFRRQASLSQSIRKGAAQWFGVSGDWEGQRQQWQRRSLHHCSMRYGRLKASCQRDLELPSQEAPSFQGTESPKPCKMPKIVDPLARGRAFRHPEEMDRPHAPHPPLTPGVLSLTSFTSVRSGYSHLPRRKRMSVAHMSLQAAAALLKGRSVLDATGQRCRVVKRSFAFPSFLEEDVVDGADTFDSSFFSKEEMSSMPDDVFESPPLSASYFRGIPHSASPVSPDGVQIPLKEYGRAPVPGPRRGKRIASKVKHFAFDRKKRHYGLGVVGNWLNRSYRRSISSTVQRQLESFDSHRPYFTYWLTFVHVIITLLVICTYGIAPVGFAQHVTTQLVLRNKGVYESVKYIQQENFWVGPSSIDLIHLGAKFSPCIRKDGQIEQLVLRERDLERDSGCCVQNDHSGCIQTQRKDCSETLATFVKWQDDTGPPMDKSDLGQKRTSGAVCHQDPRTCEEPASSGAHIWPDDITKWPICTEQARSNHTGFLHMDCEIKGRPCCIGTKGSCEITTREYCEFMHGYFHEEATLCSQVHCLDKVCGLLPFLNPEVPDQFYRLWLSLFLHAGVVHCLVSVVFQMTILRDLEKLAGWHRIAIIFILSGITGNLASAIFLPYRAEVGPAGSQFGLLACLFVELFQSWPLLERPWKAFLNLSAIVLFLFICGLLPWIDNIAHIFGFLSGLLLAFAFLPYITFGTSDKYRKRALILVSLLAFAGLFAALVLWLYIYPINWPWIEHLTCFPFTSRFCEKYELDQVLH

Sequences of proteins named here, by UniProt entry; tags and fusion partners are left off.
UniProt P62258: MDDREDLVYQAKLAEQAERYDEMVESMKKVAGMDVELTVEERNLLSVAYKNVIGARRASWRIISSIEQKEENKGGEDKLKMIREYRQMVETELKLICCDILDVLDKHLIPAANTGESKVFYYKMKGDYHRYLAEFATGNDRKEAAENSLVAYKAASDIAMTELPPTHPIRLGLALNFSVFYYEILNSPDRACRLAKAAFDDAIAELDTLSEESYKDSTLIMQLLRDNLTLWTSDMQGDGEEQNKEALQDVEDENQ

[2] = target: T2, HA-tagged iRhom2 wild type (iRhom2^WT), in iRhom1/2 DKO HEK293T cells (UniProt Q6PJF5); assay: co-IP; anti-HA magnetic beads on cleared Triton X-100 lysates (1% Triton X-100, 150 mM NaCl, 50 mM Tris-HCl pH 7.5, PhosSTOP), at least 2 h at 4°C; iRhom1/2 DKO HEK293T cells with HA-iRhom2^WT, transfected with GFP or GFP-KRAS^G12V, with or without 10 μM U0126 for 2 h; blots for 14-3-3ε, ADAM17, HA and …
T2 sequence: T1 sequence

binding [1]	binding [2]	Substance
binds	–	14-3-3 epsilon, endogenous in A549 cells (from UniProt P62258 1-255)
–	binds	14-3-3 epsilon, endogenous in HEK293T cells (from UniProt P62258 1-255)

— PMC9482348
